PubChem BioAssay AID220 (DTP/NCI, 2004)
The list shows only some results of the screen, not a fair sample: it gathers tests that were run many times, whatever their T/C, doses with no T/C, and many T/C values between a quarter and a half above the control. Other doses and runs of a compound stand elsewhere. T/C is the treated group as % of the vehicle group. Schedule codes are those of the source, taken here to give the interval after Q, in days (D) or hours (H), and the number of doses after X. Some T/C values are followed by the survivors on the day toxicity was checked, most often the fifth; without a count, all were alive then. Some entries give survivors of the animals treated and no T/C: the source holds a T/C of zero for them, seemingly a mark for toxic or unscored doses. Survivors were counted at the toxicity check, usually on the fifth day, unless a day is given; later deaths do not show. Some entries hold several experiments; the results are listed from low to high.

Test system: CD8F1 mice, subcutaneous mammary adenocarcinoma, T/C%
Assay: NCI In Vivo Anticancer Drug Screen. Data for tumor model Mammary Adenocarcinoma CD8F1 (subcutaneous) in CD8F1
Conditions: higher T/C = larger tumour
In short: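 Compound-treated versus vehicle-treated mice with transplantable tumors; survival or tumor size compared as T/C.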

[1] = T/C endpoint: median tumor weight change, dose: 500.0 mg/kg/injection, schedule: Q01DX001 (ip), vehicle: Klucel (hydroxypropylcellulose) (HPC)
[2] = T/C endpoint: median tumor weight change, dose: 1000.0 mg/kg/injection, schedule: Q01DX001 (ip), vehicle: Klucel (hydroxypropylcellulose) (HPC)
[3] = T/C endpoint: median tumor weight change, dose: 2000.0 mg/kg/injection, schedule: Q01DX001 (ip), vehicle: Klucel (hydroxypropylcellulose) (HPC)

CC1=C[S+](c2ccccc2)c2cccc3cc4ccccc4c1c23 (centres undefined)
T/C (T/C endpoint: median tumor weight change, dose: 1.25 mg/kg/injection, schedule: Q01DX001 (ip), vehicle: saline with Tween-80, evaluated on day 37): 134 % of control
T/C (T/C endpoint: median tumor weight change, dose: 2.5 mg/kg/injection, schedule: Q01DX001 (ip), vehicle: saline with Tween-80, evaluated on day 37): 134 % of control [9 of 10 alive on day 37]
survivor count (T/C endpoint: median tumor weight change, dose: 20.0 mg/kg/injection, schedule: Q01DX001 (ip), vehicle: saline with Tween-80): 3 of 10 on day 29
survivor count (T/C endpoint: median tumor weight change, dose: 40.0 mg/kg/injection, schedule: Q01DX001 (ip), vehicle: saline with Tween-80): 0 of 10 on day 29
survivor count (T/C endpoint: median tumor weight change, dose: 80.0 mg/kg/injection, schedule: Q01DX001 (ip), vehicle: saline with Tween-80): 0 of 10 on day 29

[Cl][Hg][Cl]
survivor count (T/C endpoint: median tumor weight change, dose: 6.25 mg/kg/injection, schedule: Q01DX001 (ip), vehicle: saline): 6 of 10 on day 25
survivor count (T/C endpoint: median tumor weight change, dose: 12.5 mg/kg/injection, schedule: Q01DX001 (ip), vehicle: saline): 0 of 10 on day 25
survivor count (T/C endpoint: median tumor weight change, dose: 25.0 mg/kg/injection, schedule: Q01DX001 (ip), vehicle: saline): 0 of 10 on day 25

CC(=O)OC1(C)CC(C)C(=O)C(C(O)CC2CC(=O)NC(=O)C2)C1 (centres undefined)
T/C (T/C endpoint: median tumor weight (est.), dose: 47.0 micrograms/kg/injection, schedule: Q07DX005 (ip), vehicle: saline, evaluated on day 30): 149 % of control [9 of 10 alive on day 30]

Cc1ccc(NCCN(C)C)c2c(=O)c3cc(O)ccc3sc12
survivor count [1]: 1 of 10 on day 28
survivor count [2]: 0 of 10 on day 28 and 1 of 10 on day 28
survivor count [3]: 2 of 10 on day 28 and 3 of 10 on day 28

C[n+]1cccc(NC(=O)c2ccc(NC(=O)C34CCC(C(=O)Nc5ccc(C(=O)Nc6ccc[n+](C)c6)cc5)(CC3)CC4)cc2)c1
survivor count (T/C endpoint: median tumor weight change, dose: 200.0 mg/kg/injection, schedule: Q01DX001 (ip), vehicle: saline with Tween-80): 1 of 10 on day 30 and 2 of 10 on day 30
survivor count (T/C endpoint: median tumor weight change, dose: 400.0 mg/kg/injection, schedule: Q01DX001 (ip), vehicle: saline with Tween-80): 0 of 10 on day 30 and 4 of 10 on day 38
survivor count (T/C endpoint: median tumor weight change, dose: 800.0 mg/kg/injection, schedule: Q01DX001 (ip), vehicle: saline with Tween-80): 0 of 10 on day 30

CCN1C=C/C(=C\C=C/c2cc[n+](CC)c3ccccc23)c2ccccc21
T/C (T/C endpoint: median tumor weight (est.), dose: 0.5 mg/kg/injection, schedule: Q07DX005 (ip), vehicle: suspension in saline, evaluated on day 32): 133 % of control [9 of 10 alive]

CC(C)C(N)C(=O)Nc1nncs1 (centres undefined)
survivor count (T/C endpoint: median tumor weight change, dose: 2000.0 mg/kg/injection, schedule: Q01DX001 (ip), vehicle: saline): 0 of 10 on day 28

CCc1c(CC(=O)O)c2cc(C)ccc2n1Cc1ccc(Cl)cc1
survivor count [1]: 0 of 10 on day 24
survivor count [2]: 1 of 10 on day 24
survivor count [3]: 0 of 10 on day 24

CC(=O)Oc1ccccc1O
survivor count (T/C endpoint: median tumor weight change, dose: 500.0 mg/kg/injection, schedule: Q01DX001 (ip), vehicle: saline + Tween-80 + alcohol): 0 of 10 on day 35
survivor count (T/C endpoint: median tumor weight change, dose: 1000.0 mg/kg/injection, schedule: Q01DX001 (ip), vehicle: saline + Tween-80 + alcohol): 0 of 10 on day 35

Cc1cc(C)c(-c2cc(O)c(C)cc2O)c(C)c1
T/C (T/C endpoint: median tumor weight (est.), dose: 12.5 mg/kg/injection, schedule: Q07DX005 (ip), vehicle: Klucel (hydroxypropylcellulose) (HPC), evaluated on day 30): 144 % of control
T/C (T/C endpoint: median tumor weight (est.), dose: 200.0 mg/kg/injection, schedule: Q07DX005 (ip), vehicle: Klucel (hydroxypropylcellulose) (HPC), evaluated on day 30): 128 % of control

CCN(CC)CCN1C(=O)C2C3C=CC(C2C1=O)C1C2C(=O)N(CCN(CC)CC)C(=O)C2C31 (centres undefined)
survivor count (T/C endpoint: median tumor weight change, dose: 250.0 mg/kg/injection, schedule: Q01DX001 (ip), vehicle: water): 3 of 10 on day 29
survivor count (T/C endpoint: median tumor weight change, dose: 500.0 mg/kg/injection, schedule: Q01DX001 (ip), vehicle: water): 0 of 10 on day 29

CC(=O)c1c(O)c(C)c(O)c2c1OC1=CC(=O)C(C(C)=O)C(=O)C12C (centres undefined)
T/C (T/C endpoint: median tumor weight (est.), dose: 200.0 mg/kg/injection, schedule: Q07DX004 (ip), vehicle: gum acacia, evaluated on day 30): 132 % of control

S=C1CCCCN1
survivor count (T/C endpoint: median tumor weight change, dose: 300.0 mg/kg/injection, schedule: Q01DX001 (ip), vehicle: distilled water + Tween-80 + alcohol): 2 of 10 on day 35
survivor count (T/C endpoint: median tumor weight change, dose: 600.0 mg/kg/injection, schedule: Q01DX001 (ip), vehicle: distilled water + Tween-80 + alcohol): 0 of 10 on day 35
